At least one structure is not confirmed: it was looked up by name or label, or the drawing left a doubt.
Legend:
Type in all cases: in vivo
GLUT-4 expression = experiment: Larval diabetic zebrafish assay, Western blot of GLUT-4; settings: duplicate Western blot (FIG. 11), diabetic zebrafish larvae, 10 μM
Description: (§1) Following isolation, derivatization, and analysis of compounds 41-48 through the in vitro panel of assays, the mace natural products and licarin A derivatives were investigated in the larval diabetic zebrafish assay for potential antidiabetic activity. Western blot analysis of zebrafish expression levels for glycated hemoglobin, metabolic enzymes, and molecular targets NFκB and PPAR-γ was performed to evaluate potential lead improvement and to discover possible mechanisms of action.
(§2) Wild-type zebrafish were sorted into 24-well microplates with 10 fish per well for a four-phase treatment cycle. […] Following centrifugation (60 minutes at 4° C. and 17,000 rpm), protein content of the homogenate supernatant was determined using the Pierce BCA Protein Assay kit (Pierce Biotechnology). Homogenates were analyzed by Western blot with equal amounts of total protein (20 μg) in each sample and using 4×LDS loading buffer (NuPAGE Life Technologies). […]
(§3) Electrophoresis was performed with NuPAGE MES SDS Running Buffer and using the XCell SureLock Mini-Cell Electrophoresis System (Life Technologies). […] The HRP conjugated antibodies were detected using SuperSignal West Femto chemiluminescent substrate (Pierce Biotechnology) and immunoblot images were captured using the luminometer and Lumi Analyst 3.0 software. […]

NFκB p65 expression = experiment: Larval diabetic zebrafish assay, Western blot of NFκB p65; settings: duplicate Western blot (FIG. 9), diabetic zebrafish larvae, 10 μM
Description: as §1, §2, §3

PEPCK expression = experiment: Larval diabetic zebrafish assay, Western blot of PEPCK; settings: duplicate Western blot (FIG. 10), diabetic zebrafish larvae, 10 μM
Description: as §1, §2, §3

## CN(CCOc1ccc(CC2SC(=O)NC2=O)cc1)c1ccccn1 (stereo not drawn) [rosiglitazone, reference compound]
GLUT-4 expression
  GLUT-4 expression (band density): increased capacity for glucose uptake
NFκB p65 expression
  NFκB p65 expression (band density): did not exhibit decreased NFκB expression
PEPCK expression
  PEPCK expression (band density): indicated a return to normoglycemia
